Data published in PMC3428324.

Protein sequences, listed by entry. Tags and fused reporters are not part of them.
UniProt P43249: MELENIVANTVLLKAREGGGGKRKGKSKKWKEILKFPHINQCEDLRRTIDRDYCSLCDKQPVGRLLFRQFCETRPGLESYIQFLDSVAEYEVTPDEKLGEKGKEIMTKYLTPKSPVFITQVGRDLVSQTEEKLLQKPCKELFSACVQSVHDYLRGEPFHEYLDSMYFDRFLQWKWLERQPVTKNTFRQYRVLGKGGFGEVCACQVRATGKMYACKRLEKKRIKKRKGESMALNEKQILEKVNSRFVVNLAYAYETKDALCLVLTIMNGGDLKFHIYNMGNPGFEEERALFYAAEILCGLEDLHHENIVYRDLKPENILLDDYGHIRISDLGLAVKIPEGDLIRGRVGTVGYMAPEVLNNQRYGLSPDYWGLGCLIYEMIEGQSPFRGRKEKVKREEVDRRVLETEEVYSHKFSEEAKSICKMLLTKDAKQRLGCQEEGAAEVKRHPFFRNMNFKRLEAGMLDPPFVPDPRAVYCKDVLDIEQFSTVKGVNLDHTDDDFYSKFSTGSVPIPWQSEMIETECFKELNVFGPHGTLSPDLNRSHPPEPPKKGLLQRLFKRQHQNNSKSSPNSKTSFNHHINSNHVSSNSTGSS
UniProt Q16531: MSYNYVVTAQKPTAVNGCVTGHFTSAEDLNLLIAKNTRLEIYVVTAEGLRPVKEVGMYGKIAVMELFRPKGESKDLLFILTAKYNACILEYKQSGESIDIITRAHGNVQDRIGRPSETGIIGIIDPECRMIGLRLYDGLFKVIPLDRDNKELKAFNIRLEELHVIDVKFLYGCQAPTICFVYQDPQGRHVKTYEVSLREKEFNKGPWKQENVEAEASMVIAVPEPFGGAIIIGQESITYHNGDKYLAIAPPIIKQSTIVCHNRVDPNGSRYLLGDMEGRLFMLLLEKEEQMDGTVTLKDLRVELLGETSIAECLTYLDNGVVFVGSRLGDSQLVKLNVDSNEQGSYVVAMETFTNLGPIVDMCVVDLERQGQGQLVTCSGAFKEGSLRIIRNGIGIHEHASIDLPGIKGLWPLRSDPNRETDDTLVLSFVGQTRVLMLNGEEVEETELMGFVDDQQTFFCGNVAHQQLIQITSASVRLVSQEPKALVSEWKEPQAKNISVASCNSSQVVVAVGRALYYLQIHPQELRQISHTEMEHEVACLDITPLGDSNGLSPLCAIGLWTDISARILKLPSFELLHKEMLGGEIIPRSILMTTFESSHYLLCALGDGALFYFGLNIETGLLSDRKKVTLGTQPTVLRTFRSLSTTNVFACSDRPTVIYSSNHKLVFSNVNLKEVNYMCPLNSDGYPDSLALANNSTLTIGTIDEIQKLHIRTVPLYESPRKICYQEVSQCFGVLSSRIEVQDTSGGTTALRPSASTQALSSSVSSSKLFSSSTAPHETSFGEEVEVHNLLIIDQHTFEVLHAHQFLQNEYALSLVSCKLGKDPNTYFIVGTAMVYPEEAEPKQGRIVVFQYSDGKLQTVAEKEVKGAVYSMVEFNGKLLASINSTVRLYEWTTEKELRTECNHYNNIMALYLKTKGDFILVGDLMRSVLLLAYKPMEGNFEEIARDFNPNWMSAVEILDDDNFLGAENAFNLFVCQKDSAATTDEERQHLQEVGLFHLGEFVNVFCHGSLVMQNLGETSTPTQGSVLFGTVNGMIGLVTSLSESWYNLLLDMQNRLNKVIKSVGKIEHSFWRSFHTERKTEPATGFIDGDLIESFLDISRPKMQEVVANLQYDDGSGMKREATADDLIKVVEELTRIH
UniProt Q9BQ67: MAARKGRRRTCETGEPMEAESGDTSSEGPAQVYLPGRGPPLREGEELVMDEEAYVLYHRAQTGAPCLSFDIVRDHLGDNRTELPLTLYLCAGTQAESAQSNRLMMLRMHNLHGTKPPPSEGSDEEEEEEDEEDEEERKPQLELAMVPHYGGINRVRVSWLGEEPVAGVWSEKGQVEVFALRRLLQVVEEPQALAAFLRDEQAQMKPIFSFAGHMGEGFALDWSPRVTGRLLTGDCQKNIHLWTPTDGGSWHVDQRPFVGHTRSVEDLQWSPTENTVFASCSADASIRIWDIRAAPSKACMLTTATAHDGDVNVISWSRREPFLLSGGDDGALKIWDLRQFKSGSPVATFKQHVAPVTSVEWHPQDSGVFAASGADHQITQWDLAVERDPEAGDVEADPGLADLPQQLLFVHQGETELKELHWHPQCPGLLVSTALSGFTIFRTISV
UniProt Q6UXN9: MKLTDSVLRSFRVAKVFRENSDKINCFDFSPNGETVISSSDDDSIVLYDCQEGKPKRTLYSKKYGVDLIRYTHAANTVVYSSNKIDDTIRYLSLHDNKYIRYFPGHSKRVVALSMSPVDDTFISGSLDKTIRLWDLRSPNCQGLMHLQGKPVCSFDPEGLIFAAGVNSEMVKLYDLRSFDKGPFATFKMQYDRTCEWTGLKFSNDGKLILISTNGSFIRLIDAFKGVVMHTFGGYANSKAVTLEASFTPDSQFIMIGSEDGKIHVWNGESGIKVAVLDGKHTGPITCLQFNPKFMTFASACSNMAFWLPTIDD
UniProt Q9UQ35: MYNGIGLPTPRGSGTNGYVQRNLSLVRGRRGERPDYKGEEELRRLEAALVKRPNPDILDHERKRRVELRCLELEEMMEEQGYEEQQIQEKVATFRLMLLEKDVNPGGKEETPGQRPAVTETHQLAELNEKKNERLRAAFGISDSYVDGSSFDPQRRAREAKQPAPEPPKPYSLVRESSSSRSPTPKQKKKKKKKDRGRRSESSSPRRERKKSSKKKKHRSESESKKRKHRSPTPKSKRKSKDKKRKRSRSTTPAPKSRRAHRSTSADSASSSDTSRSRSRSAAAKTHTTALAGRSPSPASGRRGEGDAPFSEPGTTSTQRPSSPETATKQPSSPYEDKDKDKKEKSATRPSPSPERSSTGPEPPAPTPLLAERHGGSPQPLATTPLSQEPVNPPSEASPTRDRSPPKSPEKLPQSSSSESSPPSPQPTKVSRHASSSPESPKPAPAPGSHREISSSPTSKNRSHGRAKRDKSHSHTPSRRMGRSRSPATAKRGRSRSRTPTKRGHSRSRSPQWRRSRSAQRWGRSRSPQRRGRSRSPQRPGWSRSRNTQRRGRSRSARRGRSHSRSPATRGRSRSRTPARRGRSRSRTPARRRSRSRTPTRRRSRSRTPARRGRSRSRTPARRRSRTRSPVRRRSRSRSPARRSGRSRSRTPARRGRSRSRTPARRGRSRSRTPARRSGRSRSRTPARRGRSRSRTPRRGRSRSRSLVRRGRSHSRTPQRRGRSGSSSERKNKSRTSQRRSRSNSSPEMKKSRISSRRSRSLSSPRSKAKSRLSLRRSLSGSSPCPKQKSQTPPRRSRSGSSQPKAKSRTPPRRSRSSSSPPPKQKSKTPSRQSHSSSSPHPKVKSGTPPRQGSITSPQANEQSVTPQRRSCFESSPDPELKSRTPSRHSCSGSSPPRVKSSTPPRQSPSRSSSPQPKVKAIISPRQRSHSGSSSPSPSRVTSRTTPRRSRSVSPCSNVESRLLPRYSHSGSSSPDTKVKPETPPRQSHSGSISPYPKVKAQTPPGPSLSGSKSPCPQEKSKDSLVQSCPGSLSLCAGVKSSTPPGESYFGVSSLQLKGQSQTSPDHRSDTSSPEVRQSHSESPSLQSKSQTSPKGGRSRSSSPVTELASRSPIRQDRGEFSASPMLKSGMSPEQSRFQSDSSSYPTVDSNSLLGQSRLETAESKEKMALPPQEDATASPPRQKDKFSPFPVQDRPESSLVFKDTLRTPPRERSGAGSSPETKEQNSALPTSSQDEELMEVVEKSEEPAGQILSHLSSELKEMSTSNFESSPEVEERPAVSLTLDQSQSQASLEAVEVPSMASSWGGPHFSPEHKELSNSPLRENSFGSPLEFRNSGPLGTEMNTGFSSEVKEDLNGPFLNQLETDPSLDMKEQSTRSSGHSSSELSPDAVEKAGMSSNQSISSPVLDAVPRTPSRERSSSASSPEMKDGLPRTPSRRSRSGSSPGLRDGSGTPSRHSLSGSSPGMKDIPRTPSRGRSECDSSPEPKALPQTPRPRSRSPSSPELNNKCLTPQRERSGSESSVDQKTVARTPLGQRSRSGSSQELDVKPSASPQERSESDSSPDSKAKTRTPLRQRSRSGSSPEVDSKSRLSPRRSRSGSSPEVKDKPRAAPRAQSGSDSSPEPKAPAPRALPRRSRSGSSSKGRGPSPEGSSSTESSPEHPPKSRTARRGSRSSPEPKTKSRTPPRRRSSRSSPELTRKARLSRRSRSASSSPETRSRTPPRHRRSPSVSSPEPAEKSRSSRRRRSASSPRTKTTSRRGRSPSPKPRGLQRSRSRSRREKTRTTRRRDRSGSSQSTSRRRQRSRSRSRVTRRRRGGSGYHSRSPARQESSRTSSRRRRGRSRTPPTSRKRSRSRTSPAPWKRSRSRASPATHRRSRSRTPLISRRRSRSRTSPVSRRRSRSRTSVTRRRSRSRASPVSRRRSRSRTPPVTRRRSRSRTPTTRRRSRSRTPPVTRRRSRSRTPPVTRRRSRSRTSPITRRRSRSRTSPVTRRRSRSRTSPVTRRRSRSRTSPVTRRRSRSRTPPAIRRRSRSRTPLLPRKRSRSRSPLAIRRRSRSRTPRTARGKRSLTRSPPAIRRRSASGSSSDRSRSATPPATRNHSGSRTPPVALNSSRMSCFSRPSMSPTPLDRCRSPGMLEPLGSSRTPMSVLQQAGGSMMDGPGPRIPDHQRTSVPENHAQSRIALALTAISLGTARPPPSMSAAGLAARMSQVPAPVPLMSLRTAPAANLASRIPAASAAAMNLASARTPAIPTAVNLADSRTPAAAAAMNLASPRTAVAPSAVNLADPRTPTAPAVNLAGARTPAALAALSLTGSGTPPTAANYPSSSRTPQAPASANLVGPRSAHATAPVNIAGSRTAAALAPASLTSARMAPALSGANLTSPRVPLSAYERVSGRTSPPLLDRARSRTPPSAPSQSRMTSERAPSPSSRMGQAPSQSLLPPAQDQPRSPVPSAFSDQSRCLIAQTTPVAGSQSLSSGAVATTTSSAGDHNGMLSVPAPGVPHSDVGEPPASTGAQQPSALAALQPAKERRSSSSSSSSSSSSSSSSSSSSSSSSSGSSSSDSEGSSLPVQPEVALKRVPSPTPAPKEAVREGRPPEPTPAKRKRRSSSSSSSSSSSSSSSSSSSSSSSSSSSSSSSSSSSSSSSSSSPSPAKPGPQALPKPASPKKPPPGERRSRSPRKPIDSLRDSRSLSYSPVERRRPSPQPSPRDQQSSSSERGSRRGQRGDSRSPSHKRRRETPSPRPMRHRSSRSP
UniProt Q96JK2: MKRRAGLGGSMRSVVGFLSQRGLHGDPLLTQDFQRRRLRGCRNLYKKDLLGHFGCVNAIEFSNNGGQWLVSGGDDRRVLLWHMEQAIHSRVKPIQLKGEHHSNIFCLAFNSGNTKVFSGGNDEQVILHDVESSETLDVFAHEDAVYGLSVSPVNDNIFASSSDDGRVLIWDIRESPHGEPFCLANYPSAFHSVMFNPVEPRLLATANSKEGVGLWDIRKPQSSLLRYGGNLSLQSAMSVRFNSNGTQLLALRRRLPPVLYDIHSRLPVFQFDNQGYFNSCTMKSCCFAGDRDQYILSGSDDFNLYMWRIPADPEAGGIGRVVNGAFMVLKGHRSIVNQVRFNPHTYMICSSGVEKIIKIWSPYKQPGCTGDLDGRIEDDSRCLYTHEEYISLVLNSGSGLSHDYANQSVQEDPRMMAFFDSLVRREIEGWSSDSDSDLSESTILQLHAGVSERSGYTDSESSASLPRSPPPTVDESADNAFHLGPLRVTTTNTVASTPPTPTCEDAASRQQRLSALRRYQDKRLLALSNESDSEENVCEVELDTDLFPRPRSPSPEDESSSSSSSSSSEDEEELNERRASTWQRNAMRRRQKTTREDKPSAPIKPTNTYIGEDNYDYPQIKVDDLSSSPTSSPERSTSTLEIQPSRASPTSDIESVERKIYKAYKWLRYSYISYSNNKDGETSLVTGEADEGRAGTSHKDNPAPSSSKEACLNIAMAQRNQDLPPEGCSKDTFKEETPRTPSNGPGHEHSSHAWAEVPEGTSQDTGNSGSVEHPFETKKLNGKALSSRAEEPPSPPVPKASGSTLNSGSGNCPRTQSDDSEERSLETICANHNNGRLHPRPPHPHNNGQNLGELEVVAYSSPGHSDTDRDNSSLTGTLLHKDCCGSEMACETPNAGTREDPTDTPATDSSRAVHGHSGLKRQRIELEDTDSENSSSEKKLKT

Columns and labels:
[1] = target: GRK5-Flag (Flag-tagged G protein-coupled receptor kinase 5) (bovine) (UniProt P43249); assay: affinity purification with mass spectrometry; lysate of MDA-MB-231 cells stably expressing GRK5-Flag (GFP cells as control); IP buffer (50 mM Tris.HCl pH 7.5, 150 mM NaCl, 0.5% NP-40, 10% glycerol, 1 mM EDTA); anti-FLAG M2 affinity gel, 4°C, 8 h; excised gel bands analysed by LC-MS/MS
[2] = target: GRK5-Flag (Flag-tagged G protein-coupled receptor kinase 5) (bovine) (UniProt P43249); assay: affinity purification with mass spectrometry; lysate of HUVEC cells transiently expressing GRK5-Flag (GFP cells as control); IP buffer; anti-FLAG M2 affinity gel, 4°C, 8 h; excised gel bands analysed by LC-MS/MS

With “Myosin-9 (MYH9) (from UniProt P35579 1-1960)” the binding [1] was “binds”.

With “heat shock protein Hsp90-beta (Hsp90AB1) (from UniProt P08238 1-724)” the binding [1] was “binds”.

In the case of “CUL4B, endogenous (from UniProt Q13620 1-913)”, the binding [1] is reported as “binds” and the binding [2] is reported as “binds”.

“damaged DNA-binding protein 1 (DDB1), endogenous (from UniProt Q16531 1-1140)” was tested, and the binding [1] was “binds” and the binding [2] was “binds”.

With “glutamate-rich WD40-repeat protein 1 (GRWD1) (from UniProt Q9BQ67 1-446)” the binding [1] was “binds” and the binding [2] was “binds”.

For WDR82 (from UniProt Q6UXN9 1-313), the binding [2] was “binds”.

“heat shock protein Hsp90-alpha (Hsp90AA1) (from UniProt P07900 1-732)” was tested, and the binding [1] was “binds”.

With “serine/arginine repetitive matrix 2 (SRRM2) (from UniProt Q9UQ35 1-2752)” the binding [1] was “binds” and the binding [2] was “binds”.

“WD40-repeat protein 22 (WDR22) (from UniProt Q96JK2 1-942)” was tested, and the binding [1] was “binds” and the binding [2] was “binds”.

B1: COP9 signalosome complex subunit 7a (COPS7A) (protein, UniProt Q9UBW8 1-275)
chain: MSAEVKVTGQNQEQFLLLAKSAKGAALATLIHQVLEAPGVYVFGELLDMPNVRELAESDFASTFRLLTVFAYGTYADYLAEARNLPPLTEAQKNKLRHLSVVTLAAKVKCIPYAVLLEALALRNVRQLEDLVIEAVYADVLRGSLDQRNQRLEVDYSIGRDIQRQDLSAIARTLQEWCVGCEVVLSGIEEQVSRANQHKEQQLGLKQQIESEVANLKKTIKVTTAAAAAATSQDPEQHLTELREPAPGTNQRQPSKKASKGKGLRGSAKIWSKSN
B1 was tested, and the binding [1] was “binds” and the binding [2] was “binds”.

B2: AP-3 complex subunit delta 1 (AP3D1) (protein, UniProt O14617 1-1153)
chain: MALKMVKGSIDRMFDKNLQDLVRGIRNHKEDEAKYISQCIDEIKQELKQDNIAVKANAVCKLTYLQMLGYDISWAAFNIIEVMSASKFTFKRIGYLAASQSFHEGTDVIMLTTNQIRKDLSSPSQYDTGVALTGLSCFVTPDLARDLANDIMTLMSHTKPYIRKKAVLIMYKVFLKYPESLRPAFPRLKEKLEDPDPGVQSAAVNVICELARRNPKNYLSLAPLFFKLMTSSTNNWVLIKIIKLFGALTPLEPRLGKKLIEPLTNLIHSTSAMSLLYECVNTVIAVLISLSSGMPNHSASIQLCVQKLRILIEDSDQNLKYLGLLAMSKILKTHPKSVQSHKDLILQCLDDKDESIRLRALDLLYGMVSKKNLMEIVKKLMTHVDKAEGTTYRDELLTKIIDICSQSNYQYITNFEWYISILVELTRLEGTRHGHLIAAQMLDVAIRVKAIRKFAVSQMSALLDSAHLLASSTQRNGICEVLYAAAWICGEFSEHLQEPHHTLEAMLRPRVTTLPGHIQAVYVQNVVKLYASILQQKEQAGEAEGAQAVTQLMVDRLPQFVQSADLEVQERASCILQLVKHIQKLQAKDVPVAEEVSALFAGELNPVAPKAQKKVPVPEGLDLDAWINEPLSDSESEDERPRAVFHEEEQRRPKHRPSEADEEELARRREARKQEQANNPFYIKSSPSPQKRYQDTPGVEHIPVVQIDLSVPLKVPGLPMSDQYVKLEEERRHRQKLEKDKRRKKRKEKEKKGKRRHSSLPTESDEDIAPAQQVDIVTEEMPENALPSDEDDKDPNDPYRALDIDLDKPLADSEKLPIQKHRNTETSKSPEKDVPMVEKKSKKPKKKEKKHKEKERDKEKKKEKEKKKSPKPKKKKHRKEKEERTKGKKKSKKQPPGSEEAAGEPVQNGAPEEEQLPPESSYSLLAENSYVKMTCDIRGSLQEDSQVTVAIVLENRSSSILKGMELSVLDSLNARMARPQGSSVHDGVPVPFQLPPGVSNEAQYVFTIQSIVMAQKLKGTLSFIAKNDEGATHEKLDFRLHFSCSSYLITTPCYSDAFAKLLESGDLSMSSIKVDGIRMSFQNLLAKICFHHHFSVVERVDSCASMYSRSIQGHHVCLLVKKGENSVSVDGKCSDSTLLSNLLEEMKATLAKC
For B2, the binding [1] was “binds” and the binding [2] was “binds”.

These are yes or no findings as the source states them, for the method shown. In cells and extracts the contact can be indirect. Here binding means that the protein was enriched with, or labelled near, the bait; the list need not be complete.
